From patent US12280087B2, “Composition comprising self-assembling peptides for use in treatment of gingivitis, periodontitis and/or peri-implantitis” (Credentis AG, priority 2016, dated 2025)
Read-outs that look alike come from different tables or passages of the source. Part of at least one peptide drawing is inferred or uncertain, most often the ends.

Columns and labels:
[1] = Mechanical properties (G′) of SAP gels in different ions and buffer systems; format: physicochemical
Method: FIG. 5: Mechanical properties are dependent on the presence of different ions and buffer systems. […] Since NO3− are monovalent ions, and ionic strength of the solution was below 130 mM, P11-8 self-assembling was slowed down. On the other hand self-assembling kinetic of P11-8 with DMEM and NaCl solution is very similar.

[2] = tested on: periodontal ligament fibroblasts (PDLF); assay: In vitro periodontal pocket model, migration of PDLF out of donor compartment; format: cell-based, human; settings: for migration distance of PDLF cells compared to collagen: P11-4 20 mg/ml, all others 15 mg/ml
Method: FIG. 6: Cell migration of a 15 mg/ml P11-4 gel on a periodontal ligament model after 8 days of incubation. Human Periodontal Ligament cells were placed in a cell pool (A) and the SAP gel (C) placed on the human dentin (B). The cell/SAP-gel/dentin was then incubated for 8 days and visually assessed resulting in migration of up to 5 mm. Scale bar: 1 mm
An in vitro model of a periodontal pocket (Meyer et al., 2016) was used to assess the migration distance of periodontal ligament fibroblasts (PDLF) out of the donor compartment. In brief, to determine early processes of tissue healing, three endpoints were investigated: Adhesion, proliferation and migration of human primary periodontal ligament fibroblasts (PDLF, ScienCell). In order to mimic the in vivo conditions as close as possible, pure bovine dentin surface served as underlying structure. Adhesion and proliferation of PDLF was assessed in a time dependent manner using ATP viability Kit (Promega). Visualization of the cells on the matrix was realized by SEM. For evaluation of cell adhesion and proliferation, Emdogain® (Straumann) was used as a positive control, as it has already proven its efficacy to promote periodontal regeneration in vivo. For assessment of migration speed and distance, a collagen I based cell donor compartment was placed on the dentin inside a special designed chamber, simulating a periodontal pocket.
A periodontal model with dentin surface and cell donor compartment was set up. A model periodontal pocket of 5 mm is created with a PDLF containing hydrogel (pink) and a dentin surface (central slab) surrounded by agarose (FIG. 15B). Analysis of the cell migration distance is possible after MTT staining (FIG. 15C) (Meyer, et al. 2017), Migration with different SAP hydrogels is shown in FIG. 16.
PDLF cells were allowed to migrate in different SAP or collagen hydrogels (P11-4: 20 mg/ml; all others 15 mg/ml), as explained in Example L. Migration distances were analyzed after 4 and 8 days. […] Visually, homogenous migration of PDLF cells is most obvious with P11-8.

[3] = tested on: SAOS-2 cells (Sarcoma osteogenic); assay: Cell viability on SAP hydrogels compared to Emdogain (PrestoBlue); format: cell-based; settings: all concentrations tested (15, 20, 30 mg/ml SAP); 24, 48, 96 h; Emdogain 30 mg/ml
Method: (§1) Left column 15 mg/ml SAP, middle column: 20 mg/ml SAP, right column 30 mg/ml SAP for each SAP, for Emdogain®, the concentration is constant at 30 mg/ml, and the three columns show 24, 48 and 96 h administration. […] Collagen (1.5 mg/ml) was used as a test system control. Cell proliferation was measured by the metabolic conversion of PrestoBlue viability reagent. Data were normalized in respect to values measured at day 1.
(§2) Proliferation of hPDLF (periodontal ligament fibroblasts) and SAOS-2 (Sarcoma osteogenic) cells on self-assembling peptides (P11-4, P11-8, P11-13 and P11-14, 15 mg/ml SAP, 20 mg/ml SAP, 30 mg/ml SAP respectively) was compared to the current gold standard Emdogain® and/or collagen after 24, 48 and 96 h. For Emdogain®, the concentration is constant at 30 mg/ml. Viability was measured by PrestoBlue® Cell Viability Reagent A13261.

[4] = tested on: hPDLF cells (human periodontal ligament fibroblasts); assay: as above; format: cell-based; settings: all concentrations tested (15, 20, 30 mg/ml SAP); 24, 48, 96 h; Emdogain 30 mg/ml
Method: as §1, §2

[5] = tested on: periodontal ligament fibroblasts (PDLF); assay: Adhesion and proliferation of PDLF on SAP hydrogels; format: cell-based, human; settings: comparison of SAP hydrogels
[6] = tested on: PDLF cells; assay: Stability of SAP matrices in contact with PDLF cells or medium (peptide in supernatant, UV-spectroscopy); format: cell-based; settings: 20 mg/ml P11-4, 15 mg/ml others; 2000 PDLF cells/well or medium; 24 h
Method: Different SAP hydrogels or matrices (20 mg/ml for P11-4; 15 mg/ml for […]) were contacted with 2000 PDLF cells/well or medium. Degradation was measured after 24 h by detection of peptide concentration in the supernatant by UV-spectroscopy. No significant effect of the cells was seen.

[7] = tested on: collagen type I; assay: Expression of extracellular matrix by HCO cells (MicroVue CICP assay); format: cell-based, human; settings: P11-4 15 mg/ml hydrogel, 5000 HCO cells; days 7, 14 and 21; normalized to proliferation rate
[8] = tested on: acute dehiscence defects in dog mandibles; format: in vivo; settings: 30 mg*ml-1 hydrogel implanted; compared to void defects and Straumann Emdogain
[9] = 6.3 mM, cited from earlier work

In the case of Ac-QQRFEWEFEQQ-NH2 [P11-4, QQRFEWEFEQQ], the “storage modulus G′ / self-assembling kinetic of gel” value ([1]; DMEM pH 7.4 versus Tris-NaCl) was “lower storage modulus like for NaCl”, the “storage modulus G′ of gel” value ([1]; artificial saliva (Tris 120 mM, Ca(NO3) 4 mM, KH2PO4 2.4 mM, pH 7.2) versus Tris-NaCl, DMEM, Tris MgSO4) was “storage moduli between G′(NaCl and MgSO^4) was reached” and the cell migration ([2]; 15 mg/ml P11-4 gel on human dentin, 8 days of incubation, visually assessed) was “up to 5 mm”. For the same substance, the “migration distance of PDLF cells compared to collagen” value ([2]; after 4 days) was “comparable to migration distances in collagen”, the “migration distance of PDLF cells compared to collagen” value ([2]; after 8 days) was “comparable to migration distances in collagen” and the “cell viability compared to Emdogain” value [3] was “increased cell viability of the cells compared to Emdogain®”. The “cell viability compared to Emdogain” value [4] was “increased cell viability of hPDLF cells compared to Emdogain®”, the “proliferation of PDLF on hydrogel” value [5] was “proliferate best” and the “degradation (peptide concentration in the supernatant)” value [6] was “degraded slightly more than the other SAP”. For the same substance, the “collagen type I expression compared to cells on TCPS” value [7] was “significantly greater”, the healing [8] was “showed the expected signs of healing” and the appearance ([9]; pH 7) was “nematic gel with high viscosity”. For the same substance, the appearance ([9]; monomeric, pH>8) was “appearing as a liquid”.
